Here are results for one compound from patent publication US10344025B2, “GLS1 inhibitors for treating disease” (Board of Regents, The University of Texas System, priority 2014, dated 2019).

The chains behind the UniProt entries cited, without tags or fusion partners. A line that says so, or that is headed by a name, gives the form on record, which may keep a tag or linker. Residues count along the entry.
UniProt O94925, 55-550 with tags or gaps limits assumed: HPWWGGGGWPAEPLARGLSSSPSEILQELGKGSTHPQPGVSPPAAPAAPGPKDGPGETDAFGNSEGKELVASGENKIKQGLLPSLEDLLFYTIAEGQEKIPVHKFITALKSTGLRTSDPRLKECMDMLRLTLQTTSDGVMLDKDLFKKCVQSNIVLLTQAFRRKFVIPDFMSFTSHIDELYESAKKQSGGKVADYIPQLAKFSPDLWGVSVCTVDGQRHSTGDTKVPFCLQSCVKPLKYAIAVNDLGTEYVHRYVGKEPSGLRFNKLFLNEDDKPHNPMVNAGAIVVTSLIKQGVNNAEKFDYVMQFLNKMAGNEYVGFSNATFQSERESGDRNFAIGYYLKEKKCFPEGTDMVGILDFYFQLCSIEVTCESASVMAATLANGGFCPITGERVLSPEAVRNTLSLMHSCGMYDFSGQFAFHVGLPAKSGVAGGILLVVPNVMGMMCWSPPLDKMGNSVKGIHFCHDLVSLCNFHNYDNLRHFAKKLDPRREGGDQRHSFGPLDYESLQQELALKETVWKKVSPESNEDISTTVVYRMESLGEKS

Test [1] concerns the target purified recombinant human GAC (GLS1) (Homo sapiens (Human), UniProt O94925). The test is described as follows: GLS1 Enzymatic Activity Assay (dual-coupled enzymatic assay, resorufin/Amplex UltraRed readout).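 Note: glutamate from GAC coupled via glutamate oxidase and peroxidase to resorufin, read as fluorescence (ex 530, em 590 nm) kinetically or at 20 min, four-parameter logistic IC50 fit.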 The class given is biochemical. To be noted: read-out: GLS1 IC50.
Another test relates to A549 cells. The test is described as follows: Proliferation Assay (A549 viability, Cell Titer Fluor, 72 hours). The class given is cell-based. To be noted: read-out: A549 EC50.

The structures given here were assigned with low confidence; some may be wrong. A value given as a limit tells only on which side of the number the result lay.

`O=C(NCc1cc(C(F)(F)F)ccn1)c1cn(CC(F)CCc2nnc(NC(=O)C3CC3)s2)nn1` (centres unmarked): in test [1], the IC50 is less than 100 nM. Moreover, the EC50 in the test on A549 cells was 100 to 500 nM.
